{"source": "PubChem BioAssay AID504793 (Drosophila RNAi Screening Center, 2011)", "purpose": "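Genes required for cells to halt at G2/M after double-strand DNA breaks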 (primary screen)", "cell system": "Drosophila S2R+ cells", "reagent": "long dsRNA against Drosophila genes, about 0.25 µg dsRNA per well", "time to read-out": "4 days of dsRNA, then 4 hours of drug before read-out", "treatment": "doxorubicin 0.5 µM for 4 hours to cause double-strand breaks, in cells also given a low, harmless dose of dsRNA against nbs to sensitise the assay", "measurement": "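Mitotic index as the number of phospho-histone H3-positive cells in each well following doxorubicin, given as raw counts without normalisation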", "reading the numbers": "mitotic cells: higher = more cells in mitosis, weaker G2 arrest", "call rule": "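Genes are called active only when high mitotic counts were reproduced with independent dsRNAs and mitosis was checked for delay without damage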", "calls": "active = confirmed in follow-up tests; inactive = not confirmed", "note": "The screen tested about 23,000 reagents; shown is an unselected part of those that have a named target and a result. Of all reagents, 62 (0.27%) got an active call. 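Calls come from follow-up tests whose scores are not deposited, so confirmed genes may have low counts here; counts are not normalised per plate.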 Raw values vary from plate to plate and are shown uncorrected. Names joined by + are all predicted targets of the reagent."}
{"predicted target": "Hyccin (GeneID 37019)", "amplicon": "DRSC06983", "mitotic cells, replicate 1": 5, "Call": "inactive"}
{"predicted target": "Alms1b + Alms1a", "amplicon": "DRSC18559", "mitotic cells, replicate 1": 10, "Call": "inactive"}
{"predicted target": "Alms1b + Alms1a", "amplicon": "DRSC27416", "mitotic cells, replicate 1": 6, "Call": "inactive"}
{"predicted target": "CG12128 (GeneID 36042)", "amplicon": "DRSC06104", "Call": "inactive"}
{"predicted target": "CG12128 (GeneID 36042)", "amplicon": "DRSC29958", "mitotic cells, replicate 1": 4, "Call": "inactive"}
{"predicted target": "Nna1 (GeneID 32329)", "amplicon": "DRSC19404", "mitotic cells, replicate 1": 7, "Call": "inactive"}
{"predicted target": "Nna1 (GeneID 32329)", "amplicon": "DRSC26989", "mitotic cells, replicate 1": 9, "Call": "inactive"}
{"predicted target": "CG31804 (GeneID 318951)", "amplicon": "DRSC22728", "mitotic cells, replicate 1": 7, "Call": "inactive"}
{"predicted target": "cwo (GeneID 44669)", "amplicon": "DRSC17072", "Call": "inactive"}
{"predicted target": "cwo (GeneID 44669)", "amplicon": "DRSC25219", "mitotic cells, replicate 1": 6, "Call": "inactive"}
{"predicted target": "EMC2B + EMC2A", "amplicon": "DRSC15241", "mitotic cells, replicate 1": 2, "Call": "inactive"}
{"predicted target": "CG12231 (GeneID 32942)", "amplicon": "DRSC19445", "mitotic cells, replicate 1": 7, "Call": "inactive"}
{"predicted target": "Rad51D (GeneID 35937)", "amplicon": "DRSC06840", "mitotic cells, replicate 1": 9, "Call": "inactive"}
{"predicted target": "Eig71Eg (GeneID 39708)", "amplicon": "DRSC11154", "mitotic cells, replicate 1": 2, "Call": "inactive"}
{"predicted target": "CG8060 (GeneID 36824)", "amplicon": "DRSC07064", "mitotic cells, replicate 1": 7, "Call": "inactive"}
{"predicted target": "CG10183 (GeneID 42782)", "amplicon": "DRSC14203", "mitotic cells, replicate 1": 12, "Call": "inactive"}
{"predicted target": "CG10183 (GeneID 42782)", "amplicon": "DRSC25343", "mitotic cells, replicate 1": 5, "Call": "inactive"}
{"predicted target": "CG12506 (GeneID 33249)", "amplicon": "DRSC00347", "mitotic cells, replicate 1": 5, "Call": "inactive"}
{"predicted target": "Asx (GeneID 36612)", "amplicon": "DRSC23408", "mitotic cells, replicate 1": 3, "Call": "inactive"}
{"predicted target": "G9a (GeneID 30971)", "amplicon": "DRSC18619", "Call": "inactive"}
{"predicted target": "CG15047 (GeneID 32845)", "amplicon": "DRSC19623", "mitotic cells, replicate 1": 15, "Call": "inactive"}
{"predicted target": "CG15047 (GeneID 32845)", "amplicon": "DRSC21443", "mitotic cells, replicate 1": 6, "Call": "inactive"}
{"predicted target": "CG15047 (GeneID 32845)", "amplicon": "DRSC27296", "mitotic cells, replicate 1": 3, "Call": "inactive"}
{"predicted target": "TfAP-2 (GeneID 40398)", "amplicon": "DRSC11601", "mitotic cells, replicate 1": 8, "Call": "inactive"}
{"predicted target": "Mnt (GeneID 31331)", "amplicon": "DRSC17894", "mitotic cells, replicate 1": 7, "Call": "inactive"}
{"predicted target": "Mnt (GeneID 31331)", "amplicon": "DRSC18480", "mitotic cells, replicate 1": 9, "Call": "inactive"}
{"predicted target": "Odc1 (GeneID 35766)", "amplicon": "DRSC07482", "mitotic cells, replicate 1": 9, "Call": "inactive"}
{"predicted target": "Odc1 (GeneID 35766)", "amplicon": "DRSC29610", "mitotic cells, replicate 1": 5, "Call": "inactive"}
{"predicted target": "CG16700 (GeneID 32694)", "amplicon": "DRSC19755", "mitotic cells, replicate 1": 7, "Call": "inactive"}
{"predicted target": "mbo (GeneID 41562)", "amplicon": "DRSC16123", "mitotic cells, replicate 1": 4, "Call": "inactive"}
{"predicted target": "CG6052 (GeneID 39971)", "amplicon": "DRSC10574", "mitotic cells, replicate 1": 3, "Call": "inactive"}
{"predicted target": "lncRNA:Hsromega (GeneID 3772547)", "amplicon": "DRSC22875", "mitotic cells, replicate 1": 15, "Call": "inactive"}
{"predicted target": "lncRNA:Hsromega (GeneID 3772547)", "amplicon": "DRSC26039", "mitotic cells, replicate 1": 6, "Call": "inactive"}
{"predicted target": "CG3984 (GeneID 41821)", "amplicon": "DRSC15530", "mitotic cells, replicate 1": 4, "Call": "inactive"}

Copied from the listing for reference:
{"predicted target": "Odc1 (GeneID 35766)", "amplicon": "DRSC07482", "mitotic cells, replicate 1": 9, "Call": "inactive"}
{"predicted target": "Odc1 (GeneID 35766)", "amplicon": "DRSC29610", "mitotic cells, replicate 1": 5, "Call": "inactive"}
